From article PMC8871739
No constants are given. Whether binding was seen depends on the method and setting. Binding calls can cover weak binding; strength is not graded here.

Biological target: GhCesA7 (Gossypium hirsutum)
Test: two-hybrid; yeast strain Y2H-Gold; pGBKT7 and pGADT7 fusions; growth on SD/-Trp/-Leu (DDO), then on SD/-Trp/-His/-Ade/-Leu (QDO) with X-α-GAL/ABA, 30 °C, 3-5 days

binding: binds
B1: GhMCesA35 (enzyme, UniProt P93155 1-974)
chain: MMESGVPVCHTCGEHVGLNVNGEPFVACHECNFPICKSCFEYDLKEGRKACLRCGSPYDENLLDDVEKATGDQSTMAAHLNKSQDVGIHARHISSVSTLDSEMAEDNGNSIWKNRVESWKEKKNKKKKPATTKVEREAEIPPEQQMEDKPAPDASQPLSTIIPIPKSRLAPYRTVIIMRLIILGLFFHYRVTNPVDSAFGLWLTSVICEIWFAFSWVLDQFPKWYPVNRETYIDRLSARYEREGEPDELAAVDFFVSTVDPLKEPPLITANTVLSILALDYPVDKVSCYISDDGAAMLTFESLVETADFARKWVPFCKKFSIEPRAPEFYFSQKIDYLKDKVQPSFVKERRAMKRDYEEYKIRINALVAKAQKTPDEGWTMQDGTSWPGNNPRDHPGMIQVFLGYSGARDIEGNELPRLVYVSREKRPGYQHHKKAGAENALVRVSAVLTNAPFILNLDCDHYVNNSKAVREAMCFLMDPQVGRDVCYVQFPQRFDGIDRSDRYANRNTVFFDVNMKGLDGIQGPVYVGTGCVFNRQALYGYGPPSMPSFPKSSSSSCSCCCPGKKEPKDPSELYRDAKREELDAAIFNLREIDNYDEYERSMLISQTSFEKTFGLSSVFIESTLMENGGVAESANPSTLIKEAIHVISCGYEEKTAWGKEIGWIYGSVTEDILTGFKMHCRGWRSIYCMPLRPAFKGSAPINLSDRLHQVLRWALGSVEIFLSRHCPLWYGFGGGRLKWLQRLAYINTIVYPFTSLPLIAYCSLPAICLLTGKFIIPTLSNLASVLFLGLFLSIIVTAVLELRWSGVSIEDLWRNEQFWVIGGVSAHLFAVFQGFLKMLAGIDTNFTVTAKAADDADFGELYIVKWTTLLIPPTTLLIVNMVGVVAGFSDALNKGYEAWGPLFGKVFFSFWVILHLYPFLKGLMGRQNRTPTIVVLWSVLLASVFSLVWVRINPFVSTADSTTVSQSCISIDC
